Test [1] deals with T1, Flag-tagged Snx2b (Arabidopsis (At prefix of the construct)) (UniProt B9DFS6).
T1 sequence: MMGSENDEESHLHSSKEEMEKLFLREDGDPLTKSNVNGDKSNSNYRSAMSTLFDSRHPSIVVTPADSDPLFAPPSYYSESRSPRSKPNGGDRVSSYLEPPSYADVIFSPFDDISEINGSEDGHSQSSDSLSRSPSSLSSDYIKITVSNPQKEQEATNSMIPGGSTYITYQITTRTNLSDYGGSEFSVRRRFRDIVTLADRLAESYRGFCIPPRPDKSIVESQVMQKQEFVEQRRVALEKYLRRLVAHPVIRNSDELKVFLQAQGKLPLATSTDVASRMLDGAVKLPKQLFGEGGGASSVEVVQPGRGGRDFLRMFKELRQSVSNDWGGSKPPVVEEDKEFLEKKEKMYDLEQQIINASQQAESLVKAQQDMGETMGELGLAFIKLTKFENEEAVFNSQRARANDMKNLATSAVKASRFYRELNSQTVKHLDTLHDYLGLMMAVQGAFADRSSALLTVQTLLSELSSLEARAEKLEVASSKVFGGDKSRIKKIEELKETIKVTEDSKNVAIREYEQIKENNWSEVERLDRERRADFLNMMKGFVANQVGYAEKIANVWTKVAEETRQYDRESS
The test can be described thus: co-IP; AtSnx1-Flag or AtSnx2b-Flag purified on anti-Flag M2 agarose from the 1% Triton X-100 solubilized membrane fraction of agroinfiltrated, TBSV-infected N. benthamiana leaves; p33-myc detected with anti-myc.

For test [2], the target named is MBP-tagged TBSV p33 replication protein (tomato bushy stunt virus (TBSV)). In words: pull-down; 2 ug MBP-p33 held on amylose resin, 1 ug GST-tagged SNX-BAR protein added, 4 C for 4 h, eluted with maltose, Western blot; both purified.
Test [3] concerns the target TBSV p33-cYFP (tomato bushy stunt virus (TBSV)). The test can be described thus: split reporter; BiFC: cYFP fusion of the viral replication protein and nYFP fusion of the SNX-BAR protein co-agroinfiltrated into N. benthamiana leaves, leaves infected with TBSV or CIRV, confocal microscopy 48 h after inoculation; also leaves treated with 66 uM Wortmannin or DMSO (p33 with Snx1 and Snx2b).

Test [4] concerns the target CIRV p36-cYFP (carnation Italian ringspot virus (CIRV)). Described as above.

Results are given in words; binding and its absence hold for the method and conditions named. A result given as binding can be weak or reduced; the word gives no strength. Where a sequence is shown, tags or fusion partners need not be part of it. For some of these results: In cells and extracts the contact can be indirect.

As to “myc-tagged TBSV p33 replication protein (tomato bushy stunt virus (TBSV))”, the binding result in test [1] is recorded as “binds”.

B1: GST-tagged yeast Vps5 (protein, UniProt Q92331 1-675)
chain: MDYEDNLEAPVWDELNHEGDKTQSLVSNSIESIGQISTNEERKDNELLETTASFADKIDLDSAPEWKDPGLSVAGNPQLEEHDNSKADDLINSLAPEQDPIADLKNSTTQFIATRESGGALFTGNANSPLVFDDTIYDANTSPNTSKSISGRRSGKPRILFDSARAQRNSKRNHSLKAKRTTASDDTIKTPFTDPLKKAEKENEFVEEPLDDRNERRENNEGKFTASVEKNILEQVDRPLYNLPQTGANISSPAEVEENSEKFGKTKIGSKVPPTEKAVAFKVEVKDPVKVGELTSIHVEYTVISESSLLELKYAQVSRRYRDFRWLYRQLQNNHWGKVIPPPPEKQSVGSFKENFIENRRFQMESMLKKICQDPVLQKDKDFLLFLTSDDFSSESKKRAFLTGSGAINDSNDLSEVRISEIQLLGAEDAAEVLKNGGIDAESHKGFMSISFSSLPKYNEADEFFIEKKQKIDELEDNLKKLSKSLEMVDTSRNTLAASTEEFSSMVETLASLNVSEPNSELLNNFADVHKSIKSSLERSSLQETLTMGVMLDDYIRSLASVKAIFNQRSKLGYFLVVIENDMNKKHSQLGKLGQNIHSEKFREMRKEFQTLERRYNLTKKQWQAVGDKIKDEFQGFSTDKIREFRNGMEISLEAAIESQKECIELWETFYQTNL
Turning to B1, the binding entry in test [2] is “binds”.

B2: nYFP-Snx1 (protein, UniProt Q9FG38 1-402)
chain: MESTEQPRNISGSMQSPRSPSSHPYLSVSVTDPVKLGNGVQAYISYRVITKTNLPEYQGPEKIVIRRYSDFVWLRDRLFEKYKGIFIPPLPEKSAVEKFRFSAEFIEMRRAALDIFVNRIALHPELQQSEDLRTFLQADEETMDRFRFQETSIFKKPADLMQMFRDVQSKVSDAVLGKEKPVEETTADYEKLKHYIFELENHLTEAQKHAYRLVKRHRELGQSLLDFGKAVKLLGACEGEPTGKAFSDLGTKSELLSIKLQKEAQQVLMNFEEPLKDYVRYVQSIKATIAERGTAFKQHCELSETTKLKEINLDKLMLTRSDKVGEAEIEYREIKAESEEATRRFERIVKRMEDEIVRFQEQKTEEMGVAFHQFAKGQARLANSVADAWRSLLPKLEASYSV
Consider B2, for which the binding result in test [3] and in test [4] was “binds” in each case.

B3: GST-tagged AtSnx1 (protein, UniProt Q9FG38 1-402)
chain: MESTEQPRNISGSMQSPRSPSSHPYLSVSVTDPVKLGNGVQAYISYRVITKTNLPEYQGPEKIVIRRYSDFVWLRDRLFEKYKGIFIPPLPEKSAVEKFRFSAEFIEMRRAALDIFVNRIALHPELQQSEDLRTFLQADEETMDRFRFQETSIFKKPADLMQMFRDVQSKVSDAVLGKEKPVEETTADYEKLKHYIFELENHLTEAQKHAYRLVKRHRELGQSLLDFGKAVKLLGACEGEPTGKAFSDLGTKSELLSIKLQKEAQQVLMNFEEPLKDYVRYVQSIKATIAERGTAFKQHCELSETTKLKEINLDKLMLTRSDKVGEAEIEYREIKAESEEATRRFERIVKRMEDEIVRFQEQKTEEMGVAFHQFAKGQARLANSVADAWRSLLPKLEASYSV
Regarding B3, the binding result in test [2] is listed as “binds”.

B4: nYFP-Snx2a (protein, UniProt Q8L5Z7 1-587)
chain: MMGSENADGFEETNLNAQRDDMENLDLGVDGGDHPLKISDVNGDTSNSGYRSAMSTLSNVRDPLSPPPTVMIPADSDPLLAPSSYEDFRSSFSSKPISSDNSYIEPPSYADVIFSPFDENSDSEINGTEDNSLHSQFSDSLSRSPSSSSSDYIKITVSNPQKEQEISNSIVGGNTYITYQITTRTNLPDFGGPSEFSVRRRFRDVVTLADRLAETYRGFCIPPRPDKSVVESQVMQKQEFVEQRRVALEKYLRRLSAHPVIRNSDELKVFLQVQGKLPLPMSTDVASRMLDGAVKLPKQLFGEGGASAVPVTEVGQPARGGRDLLRLFKELRQSVSNDWGGSKPPVVEEDKEFLEKKEKMHDLEQQIINASQQAESLVKAQQDMGETMGELGLAFIKLTKFENEEAVCNPQRTRANDMKNLATAAVKASRFYRELNSQTVKHLDTLHEYLGMMMAVQGAFADRSSALLTVQTLLSELPSLQTRVEKLEAASSKVFGGDKSRIRKIEELKETIKVTEDAKNVAIKGYERIKENNRSEVERLDRERRADFMNMMKGFVVNQVGYAEKMGNVWAKVAEETSQYDREKQSS
With B4, the binding entry in test [3] and in test [4] was “binds” each time.

B5: nYFP-Snx2b (protein, UniProt B9DFS6 1-572)
chain: MMGSENDEESHLHSSKEEMEKLFLREDGDPLTKSNVNGDKSNSNYRSAMSTLFDSRHPSIVVTPADSDPLFAPPSYYSESRSPRSKPNGGDRVSSYLEPPSYADVIFSPFDDISEINGSEDGHSQSSDSLSRSPSSLSSDYIKITVSNPQKEQEATNSMIPGGSTYITYQITTRTNLSDYGGSEFSVRRRFRDIVTLADRLAESYRGFCIPPRPDKSIVESQVMQKQEFVEQRRVALEKYLRRLVAHPVIRNSDELKVFLQAQGKLPLATSTDVASRMLDGAVKLPKQLFGEGGGASSVEVVQPGRGGRDFLRMFKELRQSVSNDWGGSKPPVVEEDKEFLEKKEKMYDLEQQIINASQQAESLVKAQQDMGETMGELGLAFIKLTKFENEEAVFNSQRARANDMKNLATSAVKASRFYRELNSQTVKHLDTLHDYLGLMMAVQGAFADRSSALLTVQTLLSELSSLEARAEKLEVASSKVFGGDKSRIKKIEELKETIKVTEDSKNVAIREYEQIKENNWSEVERLDRERRADFLNMMKGFVANQVGYAEKIANVWTKVAEETRQYDRESS
Consider B5, for which the binding result in test [3] and in test [4] was “binds” in each case.

B6: GST-tagged AtSnx2b (protein, UniProt B9DFS6 1-572)
chain: MMGSENDEESHLHSSKEEMEKLFLREDGDPLTKSNVNGDKSNSNYRSAMSTLFDSRHPSIVVTPADSDPLFAPPSYYSESRSPRSKPNGGDRVSSYLEPPSYADVIFSPFDDISEINGSEDGHSQSSDSLSRSPSSLSSDYIKITVSNPQKEQEATNSMIPGGSTYITYQITTRTNLSDYGGSEFSVRRRFRDIVTLADRLAESYRGFCIPPRPDKSIVESQVMQKQEFVEQRRVALEKYLRRLVAHPVIRNSDELKVFLQAQGKLPLATSTDVASRMLDGAVKLPKQLFGEGGGASSVEVVQPGRGGRDFLRMFKELRQSVSNDWGGSKPPVVEEDKEFLEKKEKMYDLEQQIINASQQAESLVKAQQDMGETMGELGLAFIKLTKFENEEAVFNSQRARANDMKNLATSAVKASRFYRELNSQTVKHLDTLHDYLGLMMAVQGAFADRSSALLTVQTLLSELSSLEARAEKLEVASSKVFGGDKSRIKKIEELKETIKVTEDSKNVAIREYEQIKENNWSEVERLDRERRADFLNMMKGFVANQVGYAEKIANVWTKVAEETRQYDRESS
Regarding B6, in test [2], the binding result is “binds”.

The values above are taken from paper PMC7833164.
